{
  "source": "PubChem BioAssay AID2396",
  "about": "(Broad Institute, 2010)",
  "test": "Confirmatory concentration-response luminescence assay for anti-trypanosomal compounds in parasite-infected mouse fibroblasts (AID 2396)",
  "conditions": "T. cruzi beta-gal in NIH3T3, GalScreen luminescence, 90 h; at 19.5 µM (top of the series)",
  "note": "The list shows a part of the results. Potency and affinity values are given separately. The source made no clear call on entries shown without one.",
  "data": [
    {"smiles": "O=C(NCC1CCCN(Cc2cccc(C(F)(F)F)c2)C1)c1ccc(F)cc1", "note": "(configuration not stated)", "values": [
      {"measurement": "activity change, negative = inhibition", "value": -49.1}
    ]},
    {"smiles": "COCc1cc(CN2CCCC(CNC(=O)c3ccc(F)cc3)C2)ccc1OC", "note": "(configuration not stated)", "values": [
      {"measurement": "activity change, negative = inhibition", "value": -48.1}
    ]}
  ]
}
